Results on 1 sequence are retold here after US6140052.

Chains of the proteins cited; added tags and fusions are not shown. Chains listed by the source or under a name are the forms on record and can include a tag or linker.
beta-catenin/hTcf-4 complex (endogenous, HT29) (Homo sapiens), one chain, as listed by the source, chain 1 of 2: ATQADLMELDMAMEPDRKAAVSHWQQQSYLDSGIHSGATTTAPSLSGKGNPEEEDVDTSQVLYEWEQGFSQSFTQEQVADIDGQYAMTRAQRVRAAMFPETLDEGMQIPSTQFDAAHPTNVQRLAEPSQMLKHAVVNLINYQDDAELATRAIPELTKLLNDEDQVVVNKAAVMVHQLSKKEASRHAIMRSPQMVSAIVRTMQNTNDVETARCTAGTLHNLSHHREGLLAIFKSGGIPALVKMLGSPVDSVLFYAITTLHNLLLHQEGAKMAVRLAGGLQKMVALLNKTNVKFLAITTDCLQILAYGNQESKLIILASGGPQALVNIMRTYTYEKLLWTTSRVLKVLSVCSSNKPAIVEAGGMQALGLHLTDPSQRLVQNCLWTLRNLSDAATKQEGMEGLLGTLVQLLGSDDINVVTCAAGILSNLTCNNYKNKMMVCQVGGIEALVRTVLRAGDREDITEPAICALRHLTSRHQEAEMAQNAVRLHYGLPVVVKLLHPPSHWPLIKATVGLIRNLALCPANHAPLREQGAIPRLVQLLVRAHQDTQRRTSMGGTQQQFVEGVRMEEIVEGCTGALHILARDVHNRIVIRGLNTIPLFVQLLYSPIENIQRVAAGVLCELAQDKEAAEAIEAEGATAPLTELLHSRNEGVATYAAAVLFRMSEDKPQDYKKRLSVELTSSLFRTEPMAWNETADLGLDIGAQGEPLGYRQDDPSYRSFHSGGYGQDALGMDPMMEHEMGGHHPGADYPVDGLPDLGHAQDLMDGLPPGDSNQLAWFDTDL
beta-catenin/hTcf-4 complex (endogenous, HT29) (Homo sapiens), one chain, as listed by the source, chain 2 of 2: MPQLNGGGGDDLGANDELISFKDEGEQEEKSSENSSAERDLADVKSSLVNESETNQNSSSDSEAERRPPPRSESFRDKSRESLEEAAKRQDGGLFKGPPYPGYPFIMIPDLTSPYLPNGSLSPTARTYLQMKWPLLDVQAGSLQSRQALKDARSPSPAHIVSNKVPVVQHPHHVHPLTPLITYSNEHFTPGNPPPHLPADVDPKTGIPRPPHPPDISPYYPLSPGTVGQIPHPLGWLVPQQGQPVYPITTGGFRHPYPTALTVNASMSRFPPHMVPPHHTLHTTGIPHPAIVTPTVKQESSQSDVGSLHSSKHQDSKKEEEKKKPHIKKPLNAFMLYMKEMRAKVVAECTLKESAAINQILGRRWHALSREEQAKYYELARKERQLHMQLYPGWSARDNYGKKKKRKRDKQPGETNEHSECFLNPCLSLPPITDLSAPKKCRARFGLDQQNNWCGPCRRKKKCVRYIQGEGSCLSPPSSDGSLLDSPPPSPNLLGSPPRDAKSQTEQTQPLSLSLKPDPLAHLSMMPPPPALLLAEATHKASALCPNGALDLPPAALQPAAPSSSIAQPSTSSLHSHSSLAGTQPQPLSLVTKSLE

At least one result comes from cells or an extract, where the contact may be indirect.

This data set relates to beta-catenin/hTcf-4 complex (endogenous, HT29) (Homo sapiens). In words: EMSA. The conditions noted are these: [none]; supershifted by anti-beta-catenin; complex reduced sixfold on APC induction; protein in an extract; label: radiolabel; letters built from the parent sequence and the stated change. A general note: Mobility shift assays separate free from complexed probe on a gel.

Turning to “CCCTTTGATCTTACC (double strand) [optimal Tcf/Lef probe]”, the binding result is given as “binds”.
